Test results published in article PMC10163288.
This is one part of the list.

B1: il10ra_site1_normal_mot_HHH_b1_05056_000000217_0001_1_20_H_._HHH_b1_05974_af2_0001_0000300011_0000001_0 (protein)
chain: SSSSDEEDEERVEELLEEAKHVDQEEVAELLLEALRLALELQDPELLRLVWEVVKELARKSSSSS
B2: il10ra_site1_normal_mot_3c6ad1a4bc7d4f5cf55cee527202d42a_0001_000000108_0001_32_49_H_._HHH_b1_02478_af2_0001_0000300018_0000001_0 (protein)
chain: SSSSDKEEEIFQLRIRAYRAAQKGNEEEAQELLEKALKLAEEINDEAAREAVRLLLEELESSSSS
B3: il10ra_site1_sap_24_mot_HHH_b2_06795_000000133_0001_42_56_H_._HHH_b1_08435_0001_0000300022_0000002_0_0001_af2pred_0001 (protein)
chain: SSSSSSEEEQLERLLELIREALEAGDKEQARLAIRLAELVAKLLGNEEILEELEELHELLSSSSS
B4: il10ra_site1_normal_mot_HHH_b2_06311_000000217_0001_1_16_H_._HHH_b1_07520_0001_0000300025_0000002_0_af2pred_0001 (protein)
chain: SSSSSEAERAIRFLLRAVKELLKNGDPEAAKLALRFARLLAEQLNDPELRELVEEIEELIRSSSS
B5: il10ra_site1_sap_24_mot_HHH_b1_05056_000000217_0001_1_20_H_._HHH_b1_04321_0001_0000100017_0000001_0_0001 (protein)
chain: SSSSDEEDEEVLRLAREAFRLALRGNPEEARRVLEEAIEIAREIGNERALEMLERLLKTQSSSSS
B6: il10ra_site1_normal_mot_HHH_b2_06857_af2_000000179_0001_42_54_H_._HHH_b2_01301_af2_0001_0000300025_0000001_0 (protein)
chain: SSSSDEEAQEVYELIRRAAELHFNGNDEEAEEVAQKALELAEEAGNELLRWQIEFLLRLISSSSS
B7: il10ra_site1_sap_10_mot_HHH_b2_07145_000000158_0001_24_40_H_._HHH_b2_04742_0001_0000200025_0000001_0_0001 (protein)
chain: SSSSSEEVEELLEELRKALEEGDEELFVELFVRVSRAAQELNDHELAEEIQRLAIEFLALSSSSS
B8: il10ra_site1_normal_mot_HHH_b2_00984_000000042_0001_1_20_H_._HHH_b1_03108_0001_0000200016_0000002_0 (protein)
chain: SSSSSDLEERVEELLREAEELAENGDPREAARVLQEVTRFALENNNAELLQEIWKVIKELSSSSS
B9: il10ra_site1_normal_mot_8756ee2cf497b5429c717dfc0c0bcfd6_0001_000000186_0001_1_13_H_._HHH_b2_02799_af2_0001_0000400017_0000001_0_af2pred_0001 (protein)
chain: SSSSDHAEEVAEALREALELLREGDPERAQELVEEALELAEEANDAISEAQLRFLLEHIRGSSSS
B10: il10ra_site1_sap_15_mot_HHH_b2_08265_af2_000000206_0001_22_38_H_._HHH_b1_07069_af2_0001_0000300008_0000001_0_0001 (protein)
chain: SSSDKAAHRVYELLKEALELLAEGDPEEAERVLEEARELAEELGDHVMRRIIEFIERDIENSSSS
B11: il10ra_site1_normal_mot_HHH_b1_02062_000000185_0001_1_20_H_._HHH_b1_02576_0001_0000500037_0000002_0 (protein)
chain: SSSSTEERREIYELSRELARLISEGNEEEAEKVVEEVRRLIEELGNILLEFVLRQLERDLNSSSS
B12: il10ra_site1_normal_mot_8756ee2cf497b5429c717dfc0c0bcfd6_0001_000000186_0001_1_13_H_._HHH_b2_00335_af2_0001_0000300021_0000001_0_af2pred_0001 (protein)
chain: SSSSSDRLRELLELLRRIIELSRDGDPEEARKLIEEAQELAEELNDEVAKAILEFLEEHVNSSSS
B13: il10ra_site1_normal_mot_HHH_b1_06128_000000102_0001_1_20_H_._HHH_b1_04396_0001_0000800047_0000001_0 (protein)
chain: SSSSDEFSRLALRAARLFIRGDFEELEKVLEELEEVAEKLNDEAAERAVEQIERALRALESSSSS
B14: il10ra_site1_sap_14_mot_HHH_b2_06864_af2_000000190_0001_1_20_H_._cd5f43eff521500bc79474903aa2b2a0_0001_1_0001_0000500018_0000001_0_0001 (protein)
chain: SSSSTLEELTEAALRLAEQALEWGDPEAAERLLEALLKVLRAEGNEELVELVEELLEEVRNSSSS
B15: il10ra_site1_sap_27_mot_HHH_b1_00999_000000080_0001_41_55_H_._HHH_b2_06597_0001_0000200012_0000001_0_0001 (protein)
chain: SSSDTHEVYRLSKKIMELIYEGDREEAERLLEEAQEIAEELGDRVFKHALEIIERALEERFSSSS
B16: il10ra_site1_normal_mot_HHH_b2_00943_af2_000000149_0001_1_17_H_._HHH_b1_07752_af2_0001_0000300008_0000001_0 (protein)
chain: SSSSDNVEFLVRQAEEAAELAAEFNDKEKLEHILEILEVLLEQVGDPEVEEALELVEELLKSSSS
B17: il10ra_site1_normal_mot_HHH_b2_04013_af2_000000040_0001_22_39_H_._HHH_b2_06566_0001_0000100002_0000002_0 (protein)
chain: SSSSAEELFEAVRKAIEEALELLREGNPEEAEEVLEEALRLARENNNHALVFSLELAIQDVSSSS
B18: il10ra_site1_normal_mot_HHH_b1_03559_000000151_0001_22_39_H_._HHH_b1_02435_af2_0001_0000100002_0000001_0 (protein)
chain: SSSSSEEATKLLDEAIRLLSEGDFEEAEELLEEALRLARELGDESLARLIEITLRFAREAGSSSS
B19: il10ra_site1_normal_mot_HHH_b2_03220_af2_000000223_0001_23_40_H_._HHH_b1_06566_0001_0000200018_0000001_0 (protein)
chain: SSSSSEEVWELLRRALELLARGNPEEAEEVAREAERLAEERGSEVLLLAVEFLLRAIEEHSSSSS
B20: il10ra_site1_sap_25_mot_HHH_b1_05370_000000138_0001_1_16_H_._HHH_b2_00447_0001_0000300028_0000001_0_0001 (protein)
chain: SSSSDTEEVFRLIEEAMELLADGNPEEAEEVAEEALKLAEELNNELFRINIEFVLRDIQGSSSSS
B21: il10ra_site1_sap_11_mot_HHH_b2_01447_af2_000000258_0001_1_20_H_._HHH_b1_03174_0001_0000400034_0000001_0_0001 (protein)
chain: SSSSDEEVEELIEQVKELLEKGDPERALQVVYEAVRIAAELGDEELLRRLQELIQEIYQVSSSSS
B22: il10ra_site1_sap_23_mot_HHH_b1_07286_af2_000000054_0001_1_19_H_._HHH_b2_05043_0001_0000100017_0000001_0_0001_af2pred_0001 (protein)
chain: SSSSSDEREARVEAEALLFFARYATNPEAVELALKLAEELAEEVNDEELKRKIEEVKEELSSSSS
B23: il10ra_site1_sap_21_mot_HHH_b1_06912_af2_000000235_0001_1_15_H_._HHH_b1_03798_0001_0000300017_0000001_0_0001 (protein)
chain: SSSSTYEQAIENVARQMEETIRRMGNPRAREYLEWLLRAARILGNEELEELIEELLEELRSSSSS
B24: il10ra_site1_sap_14_mot_HHH_b1_03873_af2_000000091_0001_1_14_H_._HHH_b2_04501_0001_0000800065_0000001_0_0001 (protein)
chain: SSSSSSEEQEEFRELEKELEEAKSAQERYEILERLIEVASKANDPELERLVHELLRRALRSSSSS
B25: il10ra_site1_sap_25_mot_HHH_b1_03333_000000091_0001_1_17_H_._HHH_b2_05927_af2_0001_0000500033_0000001_0_0001 (protein)
chain: SSSSDEEQQEVVRLAMEVAHLLIRGDHERVEELLEEMEELARELNDPAAERLVEIVREALRSSSS
B26: il10ra_site1_normal_mot_HHH_b1_02708_af2_000000019_0001_23_39_H_._HHH_eva_0544_af2_0002_0000200010_0000001_0 (protein)
chain: SSSSDEEEEELEKLLEEAEKLGNEAAFAVARLALHLLRLGRIDEEYIKILEHFIENALRQSSSSS
B27: il10ra_site1_normal_mot_HHH_b1_02062_000000185_0001_1_20_H_._HHH_b1_07949_0001_0000200011_0000001_0 (protein)
chain: SSSSNREAYELSREAAELVSEGDFEEARRVLEEAEEIAREAGNVNTLVTIEYLLELIERLLSSSS
B28: il10ra_site1_sap_12_mot_HHH_b1_06914_000000280_0001_1_18_H_._HHH_b2_06282_af2_0001_0000100003_0000002_0_0001 (protein)
chain: SSSSDDERSSEFMLLALELAIELGDEEQIRATASFIKALAEATNDEELEKELERLQEELGSSSSS
B29: il10ra_site1_normal_mot_HHH_b2_02900_000000189_0001_39_52_H_._HHH_b2_05056_0001_0000400020_0000002_0_af2pred_0001 (protein)
chain: SSSSSEHLEEAVKRLLRAAERAYELGDPEAAKLIVHFALALARAANNEELVRELEKLLEELSSSS
B30: il10ra_site1_sap_16_mot_HHH_b2_07144_000000289_0001_1_18_H_._HHH_b2_01768_0001_0000300036_0000001_0_0001 (protein)
chain: SSSSSAEESLEFLLLAVELAAENNDPEQVRAALRFAKRMAKWLNDEEVLKQLEELEEEFNSSSSS
B31: il10ra_site1_normal_mot_HHH_b2_00479_000000091_0001_1_12_H_._HHH_b2_03388_af2_0001_0000400024_0000002_0 (protein)
chain: SSSSTEENDEVYKLIREALELMARGNPEEARKVLEEAEEILEELNNRVLLFNVRFLLRELGSSSS
B32: il10ra_site1_normal_mot_HHH_b2_07442_000000239_0001_40_54_H_._ems_3hM_1358_0001_0000100001_0000001_1 (protein)
chain: DEKTSREAYEVSRLLAEADRRVKDEETLKELEELIQLLLEALIRNDDETLRELIEKAEEVVKEYS
B33: il10ra_site1_sap_12_mot_HHH_b1_00456_000000263_0001_1_17_H_._HHH_b1_08710_0001_0000300015_0000001_0_0001 (protein)
chain: SSSSDEELQEALELSKEAFELLLRGNPEEAKKVLEEALELAERGNDERLAKVIRDLLKVIDSSSS
B34: il10ra_site1_normal_mot_HHH_b1_08477_000000091_0001_40_57_H_._HHH_b1_03479_0001_0000200016_0000001_0 (protein)
chain: SSSSSEEEERVRQALRFAEALYKSGNPEAAESLLRVLVQSLRRLGNEELVELVEQVLEELNSSSS
B35: il10ra_site1_sap_16_mot_HHH_b2_07442_000000239_0001_40_54_H_._HHH_b2_00074_0001_0001000052_0000001_0_0001 (protein)
chain: SSSSSDLEELIEELEELVERNDMEEFHKVLREALEIAAELGDEEALERLLELTHKAVRASSSSSS
B36: il10ra_site1_sap_11_mot_HHH_b1_00666_000000226_0001_43_56_H_._HHH_b1_00924_af2_0001_0000300013_0000001_0_0001 (protein)
chain: SSSSEELYELIRKVLELRARGDPEEALRLLEEAEELAKEEGDFAFLFAIRHLLRDLEELLSSSSS
B37: il10ra_site1_normal_mot_HHH_b1_06837_000000150_0001_20_37_H_._HHH_b2_06947_0001_0000300009_0000001_0_af2pred_0001 (protein)
chain: SSSSSENEEVRRLLREAAELLNDGNPEEAKKVLEEAHELAEEANDHVARAVIEFLEKIIDSSSSS

Biological target: il10ra, Q13651
Test: yeast display titration

Apparent Kd, inactive:
B1 no binding seen, B2 no binding seen, B3 no binding seen, B4 no binding seen, B5 no binding seen, B6 no binding seen, B7 no binding seen, B8 no binding seen, B9 no binding seen, B10 no binding seen, B11 no binding seen, B12 no binding seen, B13 no binding seen, B14 no binding seen, B15 no binding seen, B16 no binding seen, B17 no binding seen, B18 no binding seen, B19 no binding seen, B20 no binding seen, B21 no binding seen, B22 no binding seen, B23 no binding seen, B24 no binding seen, B25 > 178 nM, B26 no binding seen, B27 no binding seen, B28 no binding seen, B29 no binding seen, B30 no binding seen, B31 no binding seen, B32 no binding seen, B33 no binding seen, B34 no binding seen, B35 no binding seen, B36 no binding seen, B37 no binding seen
